Source: patent US6428529B1, “Epidural administration of therapeutic compounds with sustained rate of release” (SkyePharma Inc., priority 1995, dated 2002)

Test system: rats
Assay: Antinociception, hot plate test after epidural (or subcutaneous) dose
Type: in vivo, Sprague-Dawley rats
Details: p<0.05 for each comparison

Q: Which “peak-analgesia potency (ranking), epidural” value does the source give for CN1CC[C@]23c4c5ccc(O)c4O[C@H]2[C@@H](O)C=C[C@H]3[C@H]1C5.O=S(=O)(O)O [MS, morphine sulfate] here?
A: greater than that of epidural DTC401
